PubChem BioAssay AID1259254, NCATS, 2017
Here is an unselected part of about 59,000 reagents. In the full data, about 1,550 (2.6%) were called active. 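G2 share is only a proxy for re-replication; each gene was hit by three separate siRNAs, and active genes were retested.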 The numbers tell different reagents against one gene apart. Further read-outs or replicates are left out here. Reagent sequences are not shown. The record does not give: the amount of reagent.

- Screen: 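Genome-wide screen for genes that prevent DNA re-replication in cancer cells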 (primary screen)
- Cell system: human HCT116 colorectal cancer cells
- Knock-down reagent: single siRNA against human genes
- Time to read-out: 3 days
- Detection: 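Imaged Hoechst DNA stain sorts each cell into a cycle phase by DNA amount; per plate, G2 fraction set to 0% for non-targeting and 100% for GMNN siRNA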
- Scale: G2 robust z-score: higher = more G2 cells, more excess DNA replication
- Call rule: 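An siRNA counts as active if its G2 robust z-score lies at least 5 MADs above the screen median; here such calls match roughly 38% of GMNN control or more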

G2 robust z-score, by gene and reagent
MRPS33: #1 -1.21 inactive; #2 -0.543 inactive; #3 1.12 inactive
LOC645263 (retired record): #1 0.272 inactive; #2 -0.113 inactive; #3 -0.0745 inactive
ANGPT4: #1 -1.06 inactive; #2 -0.878 inactive; #3 -0.886 inactive
NFKBIB: #1 -0.478 inactive; #2 0.143 inactive; #3 0.237 inactive
ZNF83: #1 -0.555 inactive; #2 -0.894 inactive; #3 2.06 inactive; #4 -0.0649 inactive; #5 -0.0866 inactive; #6 -0.338 inactive
ARRDC3: #1 0.818 inactive; #2 2.03 inactive; #3 1.72 inactive
TMEM9: #1 -1.29 inactive; #2 -0.484 inactive; #3 1.2 inactive
TAF9: #1 1.42 inactive; #2 -1.5 inactive; #3 0.176 inactive
MRPL54: #1 0.747 inactive; #2 -0.151 inactive; #3 0.047 inactive
RBMY2DP: #1 3.88 inactive; #2 1.41 inactive; #3 -0.448 inactive
KCNA7: #1 0.0444 inactive; #2 0.238 inactive; #3 -0.0367 inactive
KLHDC7A: #1 2.38 inactive; #2 1.43 inactive; #3 0.971 inactive
GALNTL6: #1 1.68 inactive; #2 -0.357 inactive; #3 -0.377 inactive
TSR2: #1 -0.679 inactive; #2 1.13 inactive; #3 -1.08 inactive
EXOSC2: #1 -0.616 inactive; #2 -0.292 inactive; #3 -1.01 inactive

6 entries from above, ordered by “G2 robust z-score”, lowest first.
gene	reagent	G2 robust z-score	Outcome
TSR2	3	-1.08	inactive
TSR2	1	-0.679	inactive
EXOSC2	1	-0.616	inactive
GALNTL6	3	-0.377	inactive
GALNTL6	2	-0.357	inactive
TSR2	2	1.13	inactive
